Measurements from the supplement of paper PMC7024190.
Structures can show the parent of a compound that is named as a salt. The list shows a part of the results. Repeats in this data set agree poorly, so a single value says little.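 Human embryonic kidney cells were transiently transfected with a plasmid bearing a Renilla luciferase gene under the HSV-TK promoter. This first-round screen tests roughly ten thousand compounds for ones that increase reporter output.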

These compounds were tested on HEK 293FT (assay: log relative Renilla luciferase luminescence (reporter expression vs reference, reference not stated) (log (base not stated)); higher = higher recombinant reporter expression). Conditions: 10 µM; time after transfection 48 h.

SMILES | log
Cc1c(CC(C)(C)C(=O)O)n(Cc2ccc(Cl)cc2)c2ccc(F)cc12 | 0.0384
N=C(N)NC(=N)Nc1ccccc1 [1-Phenylbiguanide hydrochloride] | 0.134
C[C@](N)(Cc1ccc(O)c(O)c1)C(=O)O [L-(-)- α-Methyldopa] | -0.0265
COc1ccccc1N1CCN(CCCCNC(=O)c2ccc(-c3ccc(C(C)=O)cc3)cc2)CC1 | 0.031
CC[N+](C)(CC)CC(=O)Nc1c(C)cccc1C [N-Methyllidocaine iodide] | -0.0684
CCOC(=O)[C@@H](C)Oc1cccc2c(=O)n(CC(=O)Nc3ccc4c(c3)OCCO4)ccc12 | -0.0182
COc1ccc2[nH]c(-c3ccccc3)c(CCNC(C)=O)c2c1 [2-Phenylmelatonin] | 0.0591
O=C(O)CCCc1ccccc1 [sodium 4-Phenylbutyrate] | 0.007
CN(C(=O)CCCOc1ccc2[nH]c(=O)ccc2c1)C1CCCCC1 [Cilostamide] | 0.0515
N[C@H](C(=O)O)c1ccc(O)c(C(=O)O)c1 [(S)-3-Carboxy-4-hydroxyphenylglycine] | -0.00867
CN(CCCN1c2ccccc2CCc2ccccc21)CC(=O)c1ccc(Cl)cc1 [Lofepramine] | 0.0254
COc1ccc2cc([C@H](C)C(=O)O)ccc2c1 [Naproxen sodium] | -0.0739
COC(=O)C1=C(C)NC(C)=C([N+](=O)[O-])[C@H]1c1ccccc1C(F)(F)F | -0.0328
Nc1ncn([C@H]2C[C@H](O)[C@@H](CO)O2)c(=O)n1 [Decitabine] | 0.0697
OC(CCCN1CCN(c2ncc(F)cn2)CC1)c1ccc(F)cc1 (stereo not given) | 0.0079
COC(=O)C(Cc1ccc(OCCn2c(=O)sc3cc(C(=O)c4ccccc4)ccc32)cc1)C(=O)OC | 0.0419
O=C(OCCN1CCCCC1)c1c[nH]c2ccccc12 | 0.0219
Cc1c(C2CCN(CCc3ccccc3)CC2)noc1-c1ccc(Cl)cc1 [L-741,742 hydrochloride] | 0.109
NC(C(=O)O)c1ccc(C(=O)O)c(C(=O)O)c1 (stereo not given) | -0.076
O=C1C(Cl)=C(NCCN2CCOCC2)C(=O)c2ncccc21 | 0.0512
N#Cc1cc2nc(O)c(O)nc2cc1[N+](=O)[O-] [CNQX disodium salt] | 0.188
CN(C)C(=O)n1nnnc1Cc1ccc(-c2ccccc2)cc1 | -1.1
COCCCC/C(=N\OCCN)c1ccc(C(F)(F)F)cc1 [Fluvoxamine maleate] | -0.0983
CCCn1c(=O)c2[nH]c(-c3ccccc3)nc2n(CCC)c1=O [1,3-Dipropyl-8-phenylxanthine] | 0.209
O=C1C=CC(=O)C2=C1C1c3ccccc3C2c2ccccc21 | -0.0863

Molecules listed so far that contain four or more nitrogen atoms, in the order listed:
SMILES | log
N=C(N)NC(=N)Nc1ccccc1 [1-Phenylbiguanide hydrochloride] | 0.134
Nc1ncn([C@H]2C[C@H](O)[C@@H](CO)O2)c(=O)n1 [Decitabine] | 0.0697
OC(CCCN1CCN(c2ncc(F)cn2)CC1)c1ccc(F)cc1 (stereo not given) | 0.0079
N#Cc1cc2nc(O)c(O)nc2cc1[N+](=O)[O-] [CNQX disodium salt] | 0.188
CN(C)C(=O)n1nnnc1Cc1ccc(-c2ccccc2)cc1 | -1.1
CCCn1c(=O)c2[nH]c(-c3ccccc3)nc2n(CCC)c1=O [1,3-Dipropyl-8-phenylxanthine] | 0.209
